This note sets out measurements from paper PMC10310818.

By UniProt entry, the sequences of proteins in these tests, tags left out. Where a name states a change or a piece, a line headed by the entry shows the natural chain unless it says otherwise.
UniProt Q8LBM8: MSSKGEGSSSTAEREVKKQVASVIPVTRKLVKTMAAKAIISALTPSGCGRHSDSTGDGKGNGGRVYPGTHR

In test [1] the target is T1, SGS3-3×Flag (pMDC32-SGS3-3×Flag) (Arabidopsis thaliana) (UniProt Q9LDX1).
T1 sequence: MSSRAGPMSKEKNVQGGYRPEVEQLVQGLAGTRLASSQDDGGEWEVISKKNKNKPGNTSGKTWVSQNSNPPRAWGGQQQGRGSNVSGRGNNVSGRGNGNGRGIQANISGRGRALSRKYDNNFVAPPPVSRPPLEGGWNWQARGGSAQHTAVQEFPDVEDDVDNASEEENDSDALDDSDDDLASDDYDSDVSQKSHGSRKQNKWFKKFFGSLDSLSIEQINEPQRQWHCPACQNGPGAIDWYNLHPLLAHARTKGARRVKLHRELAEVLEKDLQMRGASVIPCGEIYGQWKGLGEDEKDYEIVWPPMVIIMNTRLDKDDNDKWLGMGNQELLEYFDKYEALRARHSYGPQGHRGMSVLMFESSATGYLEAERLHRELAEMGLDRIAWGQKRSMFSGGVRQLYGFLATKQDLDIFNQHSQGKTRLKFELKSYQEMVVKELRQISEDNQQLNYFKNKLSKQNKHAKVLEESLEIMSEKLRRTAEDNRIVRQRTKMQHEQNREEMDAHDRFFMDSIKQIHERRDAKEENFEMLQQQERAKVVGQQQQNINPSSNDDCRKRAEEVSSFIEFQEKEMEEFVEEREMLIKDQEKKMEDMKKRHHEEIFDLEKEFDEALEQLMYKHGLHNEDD
Nature of the test: co-IP; competitive co-IP: SGS3-3×Flag (OD600 0.2) and VISP1-GFP (OD600 0.2) with increasing 2b-6×Myc (OD600 0.02, 0.1, 0.5) in N. benthamiana leaves, 1 mM 3-MA at 48 hpi; IP with anti-Flag beads.

For test [2], the target named is VISP1-Y^C (VIRUS-INDUCED SMALL PEPTIDE 1 fused to the C-terminal half of YFP) (Arabidopsis thaliana) (UniProt Q8LBM8). Nature of the test: split reporter; BiFC in N. benthamiana leaves, agroinfiltration of Y^N and Y^C fusions with P19 (OD600 0.4:0.4:0.1), YFP fluorescence by confocal microscopy at 60 hpi.

No constants are given. Whether binding was seen depends on the method and setting. Binding seen in cells or lysates may run through a third protein. For some assays here: A result given as binding can be weak or reduced; the word gives no strength. Sequences can lack the tags named with a protein.

Regarding “VISP1-GFP (pGDGm-VISP1-GFP) (Arabidopsis thaliana)”, the binding result in test [1] is “binds”.

B1: 1a-Y^N (CMV 1a fused to the N-terminal half of YFP) (protein, UniProt P17769 1-993)
chain: MATSSFNINELVASHGDKGLLATALVDKTAHEQLEEQLQHQRRGRKVYIRNVLGVKDSEVIRNRYGGKYDLHLTQQEFAPHGLAGALRLCETLDCLDSFPSSGLRQDLVLDFGGSWVTHYLRGHNVHCCSPCLGIRDKMRHAERLMNMRKIILNDPQQFDGRQPDFCTQPAADCKVQAHFAISIHGGYDMGFRGLCEAMNAHGTTILKGTMMFDGAMMFDDQGVIPELNCQWRKIRSAFSETEDVTPLVGKLNSTVFSRVRKFKTMVAFDFINESTMSYVHDWENIKSFLTDQTYSYRGMTYGIERCVIHAGIMTYKIIGVPGMCPPELIRHCIWFPSIKDYVGLKIPASQDLVEWKTVRILTSTLRETEEIAMRCYNDKKAWMEQFKVILGVLSAKSSTIVINGMSMQSGERIDINDYHYIGFAILLHTKMKYEQLGKMYDMWNASSISKWFAALTRPLRVFFSSVVHALFPTLRPREEKEFLIKLSTFVTFNEECSFDGGEEWDVISSAAYVATQAVTDGKILAAQKAEKLAEKLAQPVSEVSDSPETSSQTPDDTADVCGREREVSELDSLSAQTRSPITRVAERATAMLEYAAYEKQLHDTTVSNLKRIWNMAGGDDKRNSLEGNLKFVFDTYFTVDPMVNIHFSTGRWMRPVPEGIVYSVGYNERGLGPKSDGELYIVNSECVICNSESLSTVTRSLQAPTGTISQVDGVAGCGKTTAIKSIFEPSTDMIVTANKKSAQDVRMALFKSSDSKEACTFVRTADSVLLNECPTVSRVLVDEVVLLHFGQLCAVMSKLKAVRAICFGDSEQIAFSSRDASFDMRFSKIIPDETSDADTTFRSPQDVVPLVRLMATKALPKGTHSKYTKWVSQSKVKRSVTSRAIASVTLVDLDSSRFYITMTQADKASLISRAKEMNLPKTFWNERIKTVHESQGISEDHVTLVRLKSTKCDLFKQFSYCLVALTRHKVTFRYEYCGVLNGDLIAECVARA
In the case of B1, in test [2], the binding entry is “no binding”.
